Data on 36 targets can be found in the supplement of paper PMC6411743.

Amino acid sequences for entries named in this document (tags omitted). A change or cut given only in a name is not applied to a line headed by its entry.
UniProt Q9UP83: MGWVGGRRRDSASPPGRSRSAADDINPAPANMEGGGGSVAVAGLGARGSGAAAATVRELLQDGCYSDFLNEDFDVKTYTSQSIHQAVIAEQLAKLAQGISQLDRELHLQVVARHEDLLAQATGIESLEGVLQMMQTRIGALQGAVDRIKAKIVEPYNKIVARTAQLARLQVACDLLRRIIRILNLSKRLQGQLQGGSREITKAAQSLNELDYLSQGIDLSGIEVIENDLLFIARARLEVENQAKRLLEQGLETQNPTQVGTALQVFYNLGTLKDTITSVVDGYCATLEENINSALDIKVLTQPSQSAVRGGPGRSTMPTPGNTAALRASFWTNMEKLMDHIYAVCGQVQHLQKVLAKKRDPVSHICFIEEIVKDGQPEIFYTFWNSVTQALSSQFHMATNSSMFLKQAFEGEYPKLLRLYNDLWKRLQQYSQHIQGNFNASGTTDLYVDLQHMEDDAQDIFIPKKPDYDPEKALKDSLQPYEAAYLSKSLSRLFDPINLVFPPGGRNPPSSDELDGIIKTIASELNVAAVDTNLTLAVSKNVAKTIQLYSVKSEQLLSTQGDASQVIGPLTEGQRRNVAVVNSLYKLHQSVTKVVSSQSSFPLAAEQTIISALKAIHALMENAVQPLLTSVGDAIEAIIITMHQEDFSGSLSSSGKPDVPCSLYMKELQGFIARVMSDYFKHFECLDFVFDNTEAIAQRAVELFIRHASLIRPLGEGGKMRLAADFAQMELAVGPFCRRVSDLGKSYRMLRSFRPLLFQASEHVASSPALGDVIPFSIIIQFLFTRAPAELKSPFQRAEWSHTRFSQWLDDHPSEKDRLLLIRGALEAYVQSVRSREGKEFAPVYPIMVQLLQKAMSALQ
UniProt Q9UDY8: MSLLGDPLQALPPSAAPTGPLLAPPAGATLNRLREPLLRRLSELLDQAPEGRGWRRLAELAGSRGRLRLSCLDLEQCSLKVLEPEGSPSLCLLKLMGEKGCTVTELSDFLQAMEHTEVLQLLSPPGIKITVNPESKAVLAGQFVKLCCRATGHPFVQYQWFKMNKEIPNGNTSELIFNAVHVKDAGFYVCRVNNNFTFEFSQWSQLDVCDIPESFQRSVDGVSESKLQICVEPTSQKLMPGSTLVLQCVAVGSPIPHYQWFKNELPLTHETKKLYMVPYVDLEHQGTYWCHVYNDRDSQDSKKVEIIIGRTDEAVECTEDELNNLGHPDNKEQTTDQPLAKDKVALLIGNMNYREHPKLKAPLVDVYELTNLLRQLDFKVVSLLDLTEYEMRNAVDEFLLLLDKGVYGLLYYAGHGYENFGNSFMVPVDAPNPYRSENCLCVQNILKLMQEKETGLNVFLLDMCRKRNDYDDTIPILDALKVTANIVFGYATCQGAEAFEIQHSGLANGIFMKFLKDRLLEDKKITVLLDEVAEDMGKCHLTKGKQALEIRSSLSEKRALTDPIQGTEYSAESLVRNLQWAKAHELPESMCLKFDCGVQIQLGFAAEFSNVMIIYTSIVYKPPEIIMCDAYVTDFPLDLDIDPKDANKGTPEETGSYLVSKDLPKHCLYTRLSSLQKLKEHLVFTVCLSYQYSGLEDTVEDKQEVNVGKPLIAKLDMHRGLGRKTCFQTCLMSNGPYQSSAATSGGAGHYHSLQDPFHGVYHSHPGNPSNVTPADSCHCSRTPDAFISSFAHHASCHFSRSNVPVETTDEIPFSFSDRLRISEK
UniProt Q9UHY1: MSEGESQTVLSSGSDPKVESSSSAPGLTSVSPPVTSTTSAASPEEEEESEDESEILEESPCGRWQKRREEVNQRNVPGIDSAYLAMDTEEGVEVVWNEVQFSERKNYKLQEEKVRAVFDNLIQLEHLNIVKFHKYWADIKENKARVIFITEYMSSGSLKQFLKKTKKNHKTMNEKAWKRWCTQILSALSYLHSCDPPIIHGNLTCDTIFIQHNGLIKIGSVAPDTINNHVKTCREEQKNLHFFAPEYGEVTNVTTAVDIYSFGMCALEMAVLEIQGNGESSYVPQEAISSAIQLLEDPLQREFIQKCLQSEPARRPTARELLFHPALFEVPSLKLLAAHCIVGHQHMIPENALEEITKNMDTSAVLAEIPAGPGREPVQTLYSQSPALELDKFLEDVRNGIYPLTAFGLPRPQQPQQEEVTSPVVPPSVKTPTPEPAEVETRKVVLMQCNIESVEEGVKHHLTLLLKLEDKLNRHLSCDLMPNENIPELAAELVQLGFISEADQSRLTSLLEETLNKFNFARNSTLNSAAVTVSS
UniProt Q9ULC3: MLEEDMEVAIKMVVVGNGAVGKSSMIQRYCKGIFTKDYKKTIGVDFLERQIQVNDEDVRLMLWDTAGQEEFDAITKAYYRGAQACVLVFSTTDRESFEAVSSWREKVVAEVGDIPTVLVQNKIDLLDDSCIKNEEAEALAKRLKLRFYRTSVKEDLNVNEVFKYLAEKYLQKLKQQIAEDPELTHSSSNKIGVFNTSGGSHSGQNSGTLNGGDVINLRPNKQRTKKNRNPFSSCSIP
UniProt Q9UPN7: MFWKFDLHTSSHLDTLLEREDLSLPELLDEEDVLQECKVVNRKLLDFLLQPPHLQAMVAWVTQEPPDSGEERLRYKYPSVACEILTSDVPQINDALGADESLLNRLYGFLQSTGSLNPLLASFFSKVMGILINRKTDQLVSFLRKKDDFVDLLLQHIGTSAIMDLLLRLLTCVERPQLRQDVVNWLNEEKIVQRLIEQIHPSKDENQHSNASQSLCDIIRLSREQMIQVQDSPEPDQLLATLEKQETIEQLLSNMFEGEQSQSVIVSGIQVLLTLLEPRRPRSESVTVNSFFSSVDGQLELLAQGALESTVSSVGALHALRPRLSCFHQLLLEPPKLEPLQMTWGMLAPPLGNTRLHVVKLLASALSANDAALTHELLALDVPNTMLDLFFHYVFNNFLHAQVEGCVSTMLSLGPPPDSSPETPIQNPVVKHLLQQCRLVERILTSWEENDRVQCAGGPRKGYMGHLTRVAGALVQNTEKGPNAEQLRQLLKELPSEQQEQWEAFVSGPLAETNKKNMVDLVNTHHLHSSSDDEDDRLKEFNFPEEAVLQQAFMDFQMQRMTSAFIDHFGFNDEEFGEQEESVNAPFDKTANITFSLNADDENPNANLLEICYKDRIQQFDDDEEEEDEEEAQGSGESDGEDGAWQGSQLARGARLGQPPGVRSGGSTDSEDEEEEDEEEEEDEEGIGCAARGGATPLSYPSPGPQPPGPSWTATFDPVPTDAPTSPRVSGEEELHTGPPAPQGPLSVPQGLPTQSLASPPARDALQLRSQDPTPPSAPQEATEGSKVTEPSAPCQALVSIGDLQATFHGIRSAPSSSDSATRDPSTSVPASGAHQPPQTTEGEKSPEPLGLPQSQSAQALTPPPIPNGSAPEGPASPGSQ
UniProt Q9UMY1: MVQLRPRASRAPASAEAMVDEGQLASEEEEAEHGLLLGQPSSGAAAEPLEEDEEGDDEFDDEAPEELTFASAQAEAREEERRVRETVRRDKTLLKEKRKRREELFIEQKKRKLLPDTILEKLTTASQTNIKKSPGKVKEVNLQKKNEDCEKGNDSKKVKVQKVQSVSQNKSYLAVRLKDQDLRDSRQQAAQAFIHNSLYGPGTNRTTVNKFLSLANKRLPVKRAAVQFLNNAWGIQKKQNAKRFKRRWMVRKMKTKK
UniProt Q9UI12, whole entry: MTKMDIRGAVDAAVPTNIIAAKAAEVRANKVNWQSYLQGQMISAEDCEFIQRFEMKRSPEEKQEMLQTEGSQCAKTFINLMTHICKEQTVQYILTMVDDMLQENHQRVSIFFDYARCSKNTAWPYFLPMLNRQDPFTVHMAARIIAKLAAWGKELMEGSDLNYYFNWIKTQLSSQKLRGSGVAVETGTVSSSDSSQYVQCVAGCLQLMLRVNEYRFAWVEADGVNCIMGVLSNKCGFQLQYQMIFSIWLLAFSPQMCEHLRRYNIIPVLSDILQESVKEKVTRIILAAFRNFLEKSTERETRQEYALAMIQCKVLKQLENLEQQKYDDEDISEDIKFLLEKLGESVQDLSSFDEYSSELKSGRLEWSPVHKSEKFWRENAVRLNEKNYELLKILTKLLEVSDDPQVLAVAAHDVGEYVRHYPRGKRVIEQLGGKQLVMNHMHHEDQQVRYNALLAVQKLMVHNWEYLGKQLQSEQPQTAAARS
UniProt Q9UQ49: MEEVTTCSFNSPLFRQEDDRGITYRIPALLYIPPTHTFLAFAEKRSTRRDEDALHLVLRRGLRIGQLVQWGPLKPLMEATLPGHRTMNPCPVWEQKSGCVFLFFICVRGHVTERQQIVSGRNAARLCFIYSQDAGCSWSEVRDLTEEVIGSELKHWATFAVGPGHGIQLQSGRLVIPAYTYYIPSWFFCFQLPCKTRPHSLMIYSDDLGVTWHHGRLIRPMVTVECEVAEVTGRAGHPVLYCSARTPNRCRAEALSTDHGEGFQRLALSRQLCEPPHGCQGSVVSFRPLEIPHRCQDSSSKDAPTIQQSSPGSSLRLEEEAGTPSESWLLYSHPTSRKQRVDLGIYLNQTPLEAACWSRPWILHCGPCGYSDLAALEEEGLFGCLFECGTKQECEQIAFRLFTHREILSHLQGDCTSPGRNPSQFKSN
UniProt Q9ULX3: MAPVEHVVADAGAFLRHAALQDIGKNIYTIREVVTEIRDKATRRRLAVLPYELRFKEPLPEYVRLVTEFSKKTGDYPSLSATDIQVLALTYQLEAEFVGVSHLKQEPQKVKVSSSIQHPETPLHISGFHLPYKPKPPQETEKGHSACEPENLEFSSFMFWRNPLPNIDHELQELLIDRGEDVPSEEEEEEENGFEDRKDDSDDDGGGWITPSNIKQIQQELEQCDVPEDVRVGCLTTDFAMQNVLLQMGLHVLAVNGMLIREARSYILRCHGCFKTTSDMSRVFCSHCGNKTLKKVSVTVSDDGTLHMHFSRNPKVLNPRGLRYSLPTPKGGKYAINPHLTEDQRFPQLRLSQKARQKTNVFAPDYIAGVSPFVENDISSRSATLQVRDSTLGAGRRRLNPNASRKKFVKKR
UniProt Q9Y282: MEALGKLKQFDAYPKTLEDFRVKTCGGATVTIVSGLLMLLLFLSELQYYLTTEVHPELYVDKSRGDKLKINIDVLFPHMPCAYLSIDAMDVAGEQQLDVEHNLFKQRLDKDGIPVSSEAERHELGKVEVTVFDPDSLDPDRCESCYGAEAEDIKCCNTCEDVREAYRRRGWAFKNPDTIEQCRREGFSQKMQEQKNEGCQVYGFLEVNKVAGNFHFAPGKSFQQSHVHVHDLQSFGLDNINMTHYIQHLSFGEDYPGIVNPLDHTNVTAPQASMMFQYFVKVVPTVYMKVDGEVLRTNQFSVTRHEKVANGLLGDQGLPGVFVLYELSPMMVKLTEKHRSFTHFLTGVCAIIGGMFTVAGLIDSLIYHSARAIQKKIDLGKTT
UniProt Q9Y320, whole entry: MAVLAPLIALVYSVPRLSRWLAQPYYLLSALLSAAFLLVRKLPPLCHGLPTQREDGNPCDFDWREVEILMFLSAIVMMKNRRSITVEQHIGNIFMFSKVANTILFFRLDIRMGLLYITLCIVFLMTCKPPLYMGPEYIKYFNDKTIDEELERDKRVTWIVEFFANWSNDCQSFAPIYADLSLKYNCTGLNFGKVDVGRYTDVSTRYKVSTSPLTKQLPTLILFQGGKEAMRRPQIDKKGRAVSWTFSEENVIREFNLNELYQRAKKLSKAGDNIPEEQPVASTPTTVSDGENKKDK
UniProt Q9UJX6, whole entry: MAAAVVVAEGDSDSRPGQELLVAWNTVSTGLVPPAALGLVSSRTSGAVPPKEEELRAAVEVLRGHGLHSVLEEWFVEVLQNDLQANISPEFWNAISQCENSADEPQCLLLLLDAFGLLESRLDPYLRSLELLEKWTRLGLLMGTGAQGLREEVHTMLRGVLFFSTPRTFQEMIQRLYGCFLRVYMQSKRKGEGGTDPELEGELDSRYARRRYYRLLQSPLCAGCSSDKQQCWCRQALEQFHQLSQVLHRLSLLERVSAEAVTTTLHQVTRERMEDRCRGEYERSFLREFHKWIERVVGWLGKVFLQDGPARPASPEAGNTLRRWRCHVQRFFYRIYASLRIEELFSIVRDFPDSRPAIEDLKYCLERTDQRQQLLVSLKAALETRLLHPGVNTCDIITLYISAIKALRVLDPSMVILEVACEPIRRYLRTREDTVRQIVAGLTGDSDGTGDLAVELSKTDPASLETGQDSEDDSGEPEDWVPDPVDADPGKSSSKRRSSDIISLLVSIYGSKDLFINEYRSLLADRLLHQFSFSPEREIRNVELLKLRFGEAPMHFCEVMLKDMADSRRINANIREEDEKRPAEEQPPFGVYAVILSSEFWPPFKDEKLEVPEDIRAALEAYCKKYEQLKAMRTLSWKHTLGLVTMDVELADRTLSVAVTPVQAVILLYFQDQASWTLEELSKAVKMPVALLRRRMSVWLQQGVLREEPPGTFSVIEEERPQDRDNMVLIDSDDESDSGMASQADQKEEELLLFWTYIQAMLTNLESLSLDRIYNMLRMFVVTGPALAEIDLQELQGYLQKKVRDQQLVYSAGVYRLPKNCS
UniProt Q9UI09, whole entry: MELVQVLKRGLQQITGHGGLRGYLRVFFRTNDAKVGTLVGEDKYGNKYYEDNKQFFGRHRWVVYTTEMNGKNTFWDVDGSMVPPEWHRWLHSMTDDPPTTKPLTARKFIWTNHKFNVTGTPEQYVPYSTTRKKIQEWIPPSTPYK

± gives the standard deviation of the averaged measurements. The entries are a selection whose mix differs from that of the whole data set.

Compound in one experiment: Nc1ncnc2c1ncn2[C@@H]1O[C@H](COP(=O)(O)OP(=O)(O)NP(=O)(O)O)[C@@H](O)[C@H]1O [adenylyl imidodiphosphate]
As to the kind of experiment: NP40-soluble protein abundance relative to vehicle (solubility fold change) (ratio); higher = more soluble protein in presence of AMP-PNP. The conditions noted are these: concentration: 2mM. A digest of the protocol:
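Across three independent experiments, values are fold changes against the detergent-processed vehicle for each replicate, based on vsn-normalised intensities. The samples were Jurkat crude lysate treated with eight concentrations (0.1 to 10 mM) for 10 min at room temperature and then 3 min at 37 °C. Lysate was solubilised with 0.8% NP40 and benzonase, ultracentrifuged, and the supernatant analysed by TMT-labelled LC-MS/MS.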
For the target UniProt Q9UJX5 and related entries, the NP40-soluble protein abundance is 0.963 ± 0.022.
Still for that read-out and setting: under UniProt Q9UP83 and related entries stands 1.01 ± 0.016; under UniProt Q9UHW5 and related entries, 0.973 ± 0.076; under UniProt Q9ULJ3 and related entries, 1.01 ± 0.039.
Turning to UniProt Q9ULT8 and related entries, the NP40-soluble protein abundance turned out to be 0.995 ± 0.027.
Still for that read-out and setting: next, GSTK1 (UniProt Q9Y2Q3): 0.943 ± 0.018; UniProt Q9UDY8 and related entries: 0.964 ± 0.045; UniProt Q9UMS0 and related entries: 1.07 ± 0.037.
Same read-out and setting: next, NRBP1 (UniProt Q9UHY1): 1.02 ± 0.018; RAB23 (UniProt Q9ULC3): 0.9596 ± 0.0092.
Same read-out and setting: next, ENOPH1 (UniProt Q9UHY7): 1.08 ± 0.081; UniProt Q9UPN7: 1.01 ± 0.033; NOL7 (UniProt Q9UMY1): 1.04 ± 0.015.
In the case of UniProt Q9UJZ1 and related entries, the NP40-soluble protein abundance was determined as 0.982 ± 0.056.
For UniProt Q9UI12 and related entries, the NP40-soluble protein abundance was 0.986 ± 0.012.
Turning to UniProt Q9UQ49 and related entries, the NP40-soluble protein abundance came to 1.02 ± 0.021.
Same read-out and setting: next, TRAF3IP3 (UniProt Q9Y228): 1.05 ± 0.042.
Same read-out and setting: next, UniProt Q9Y2Z2 and related entries: 0.941 ± 0.0087; PACSIN3 (UniProt Q9UKS6): 1.08 ± 0.059; NOB1 (UniProt Q9ULX3): 0.956 ± 0.027.
Regarding MRPS28 (UniProt Q9Y2Q9), the NP40-soluble protein abundance turned out to be 1.03 ± 0.053.

The same experiment, now with this note: concentration: 4mM.
UniProt Q9UBS8 and related entries: the NP40-soluble protein abundance turned out to be 0.984 ± 0.038.
On the same count and under the same terms, under TPX2 (UniProt Q9ULW0) stands 1.23 ± 0.066; under NSFL1C (UniProt Q9UNZ2), 0.9704 ± 0.0086.
Consider AASS (UniProt Q9UDR5), for which the NP40-soluble protein abundance is 0.969 ± 0.035.
Same read-out and setting: under GINS2 (UniProt Q9Y248) stands 1.01 ± 0.023; under UniProt Q9UNF0 and related entries, 1.02 ± 0.053.
Still for that read-out and setting: under GTF3C4 (UniProt Q9UKN8) stands 1.02 ± 0.06; under UniProt Q9Y282 and related entries, 0.992 ± 0.049; under UniProt Q9Y320 and related entries, 0.918 ± 0.036.
On to UniProt Q9UJX6 and related entries, for which the NP40-soluble protein abundance was 0.94 ± 0.038.
As for NDUFA12 (UniProt Q9UI09), the NP40-soluble protein abundance was found to be 0.987 ± 0.028.
Still for that read-out and setting: next, UniProt Q9UNS1 and related entries: 0.946 ± 0.031; TBK1 (UniProt Q9UHD2): 0.99 ± 0.032; SMC3 (UniProt Q9UQE7): 1 ± 0.03.
Take UniProt Q9ULR0 and related entries: the NP40-soluble protein abundance came to 1.02 ± 0.024.
In the case of UniProt Q9UJX5 and related entries, the NP40-soluble protein abundance was found to be 0.978 ± 0.032.
With UniProt Q9UP83 and related entries, the NP40-soluble protein abundance turned out to be 0.999 ± 0.02.
Same read-out and setting: under UniProt Q9UHW5 and related entries stands 1 ± 0.034; under UniProt Q9ULJ3 and related entries, 0.997 ± 0.023.
Still for that read-out and setting: next, UniProt Q9ULT8 and related entries: 1.001 ± 0.008; GSTK1 (UniProt Q9Y2Q3): 1 ± 0.051.
Same read-out and setting: under UniProt Q9UDY8 and related entries stands 0.979 ± 0.022.
As to UniProt Q9UMS0 and related entries, the NP40-soluble protein abundance came to 1.01 ± 0.048.
Take NRBP1 (UniProt Q9UHY1): the NP40-soluble protein abundance came to 1.01 ± 0.02.
Same read-out and setting: under RAB23 (UniProt Q9ULC3) stands 0.974 ± 0.029.
Same read-out and setting: next, ENOPH1 (UniProt Q9UHY7): 1.04 ± 0.052; UniProt Q9UPN7: 0.982 ± 0.025.
The same measure, in the same setting: next, NOL7 (UniProt Q9UMY1): 1.03 ± 0.025.
With UniProt Q9UJZ1 and related entries, the NP40-soluble protein abundance is 0.902 ± 0.042.
Still for that read-out and setting: next, UniProt Q9UI12 and related entries: 0.978 ± 0.013.
Still for that read-out and setting: under UniProt Q9UQ49 and related entries stands 1.02 ± 0.026; under TRAF3IP3 (UniProt Q9Y228), 1.01 ± 0.043; under UniProt Q9Y2Z2 and related entries, 0.937 ± 0.026.
Same read-out and setting: next, PACSIN3 (UniProt Q9UKS6): 1.06 ± 0.041; NOB1 (UniProt Q9ULX3): 0.984 ± 0.042.
For MRPS28 (UniProt Q9Y2Q9), the NP40-soluble protein abundance was 0.952 ± 0.063.
